Plain letter strings leave the end groups untold.

This data set can be described thus: general procedure: Fmoc solid-phase peptide synthesis. To be noted: whole synthesis, 220 nm.
With “AADQPENHQALAEPVTGVGEAGVSPVNEAGESYSSATSGVQ”, the “final HPLC purity” value is listed as 95%. Regarding AGIKLTVPIEKFPVTTQTFVVGC, the “final HPLC purity” value was found to be 99%. For the sequence DKKSTAAVILTPTEN, the “final HPLC purity” value was determined as 97%.

Turning to EVPPPNAQELPPPNSQELPPPNSQELP, the “final HPLC purity” value came out at 95%. Take “FLVAAALGGLAADQPENHQALAEPVTGVGEAGVSPVNEAG”: the “final HPLC purity” value came out at 95%. The value for FRKRGVRSDAEVTDDNIYEEHTDRK was 95%; that for GQGDSLAEDDTTSEAAEGDVDPFPVLANEGK was 96%. As for GSFLMPVKPHANADDFASDDNYET, the “final HPLC purity” value worked out at 95%. As to GTSTNESASENSEDDTFHDALQE, the “final HPLC purity” value was determined as 96%. For the sequence GVQEATAPGAVLLEAIDAESDKVDNQAEGGE, the “final HPLC purity” value was determined as 96%.

On to KDSSSSESTVTPADEAASESEEGDKTS, for which the “final HPLC purity” value amounted to 97%. LVAAALPQFATAATASDDELMSRIRNSDFFD: the “final HPLC purity” value was found to be 96%. The value for PAGNNDGSSAPTPK was 98%; that for PALEQEVPESGEDGE was 95%; that for PPPPTQGEQPEGQQP was 99%. TGSSGGQQEAVGTTEDYVNSSAM: the “final HPLC purity” value is given as 96%.

As for VFQCGDKLTISPSGEGDVFYGKE, the “final HPLC purity” value was determined as 96%.

The record behind these values is US20250171508A1 (published 2025).
